The source of these data is PMC3897609, “Heparanase Interacts with Resistin and Augments Its Activity” (PLoS ONE, 2014).

Protein sequences, listed by entry. Tags and fused reporters are not part of them. Residues count along the entry.
UniProt P41159, residues 22-167: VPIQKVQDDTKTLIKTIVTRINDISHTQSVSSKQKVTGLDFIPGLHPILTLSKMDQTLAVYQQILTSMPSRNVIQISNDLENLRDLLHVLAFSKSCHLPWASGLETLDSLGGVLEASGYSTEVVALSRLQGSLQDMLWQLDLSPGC

No constants are given. Whether binding was seen depends on the method and setting. Sequences can lack the tags named with a protein.

The target of this experiment is T1, cMyc-tagged 65-kDa latent heparanase (human, UniProt Q9Y251 36-543).
T1 construct: heparanase, human, 65-kDa latent (unprocessed) form; also called cMyc-latent heparanase; latent cMyc-heparanase; source: medium conditioned by heparanase infected CHO cells, purified (heparin column)
T1 sequence (looked up): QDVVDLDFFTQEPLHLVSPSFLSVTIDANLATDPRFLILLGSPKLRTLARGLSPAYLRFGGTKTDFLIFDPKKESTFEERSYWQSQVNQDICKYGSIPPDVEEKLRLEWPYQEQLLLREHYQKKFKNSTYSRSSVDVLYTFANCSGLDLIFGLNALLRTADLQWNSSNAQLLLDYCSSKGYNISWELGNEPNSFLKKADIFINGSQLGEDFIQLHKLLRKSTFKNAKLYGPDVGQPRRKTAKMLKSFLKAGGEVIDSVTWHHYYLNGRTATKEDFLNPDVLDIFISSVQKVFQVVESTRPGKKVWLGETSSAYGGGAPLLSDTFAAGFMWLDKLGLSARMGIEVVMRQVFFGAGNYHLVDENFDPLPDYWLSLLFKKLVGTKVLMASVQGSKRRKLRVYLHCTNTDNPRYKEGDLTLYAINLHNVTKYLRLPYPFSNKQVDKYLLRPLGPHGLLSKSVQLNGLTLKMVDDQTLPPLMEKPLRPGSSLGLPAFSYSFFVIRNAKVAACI
As to the kind of experiment: ELISA; plates coated with cMyc-heparanase (5 µg/ml), active heparanase (2 µg/ml) or resistin (5-10 µg/ml) in PBS; analyte 2 h at RT; detection with anti resistin, anti heparanase or anti cMyc antibody; also done in the presence of 0.1 mM DTT; both purified. (In general: ELISA stands for enzyme-linked immunosorbent assay.)

Turning to “Human leptin expressed in E. coli (from UniProt P41159 22-167)”, the binding entry is “no binding”.
